Measurements taken from paper PMC10907716.
No constants are given. Whether binding was seen depends on the method and setting. For some assays here: In cells and extracts the contact can be indirect. Some entries that bind do so weakly or less than the wild type. For some assays here: Where a sequence is shown, tags or fusion partners need not be part of it.

Protein sequences, listed by entry. Tags and fused reporters are not part of them.
UniProt Q9NQB0: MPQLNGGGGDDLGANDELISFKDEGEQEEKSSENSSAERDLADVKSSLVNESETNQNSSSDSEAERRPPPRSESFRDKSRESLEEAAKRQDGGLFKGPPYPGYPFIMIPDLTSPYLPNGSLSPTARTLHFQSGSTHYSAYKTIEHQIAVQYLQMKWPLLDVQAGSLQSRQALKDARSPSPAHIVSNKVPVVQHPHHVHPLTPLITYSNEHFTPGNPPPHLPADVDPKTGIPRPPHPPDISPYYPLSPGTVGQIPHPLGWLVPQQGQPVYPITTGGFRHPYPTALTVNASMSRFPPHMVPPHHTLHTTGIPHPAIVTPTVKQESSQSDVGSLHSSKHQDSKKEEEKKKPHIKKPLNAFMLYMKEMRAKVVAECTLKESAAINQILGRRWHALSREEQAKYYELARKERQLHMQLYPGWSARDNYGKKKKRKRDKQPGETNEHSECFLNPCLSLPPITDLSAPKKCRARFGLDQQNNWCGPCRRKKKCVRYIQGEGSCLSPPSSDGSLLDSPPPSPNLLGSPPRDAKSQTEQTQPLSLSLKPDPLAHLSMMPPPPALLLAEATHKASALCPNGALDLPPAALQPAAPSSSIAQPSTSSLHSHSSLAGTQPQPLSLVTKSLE

Columns and labels:
GST-TRIB3 fusion protein = GST-TRIB3 fusion protein (UniProt Q96RU7); assay: pull-down; purified TCF4 protein or β-catenin incubated overnight at 4 °C with GST or GST-TRIB3 fusion proteins in the presence of glutathione-sepharose beads; both purified
[1] = target: Tribbles pseudokinase 3 (TRIB3) (human (endogenous in HNSCC cell lines)) (UniProt Q96RU7); assay: co-IP; HNSCC cell lysate incubated with Protein A/G Plus-Agarose and anti-TCF4, anti-TRIB3 or anti-β-catenin antibody overnight at 4 °C, washed 5 times with PBS, immunoblot; normal rabbit IgG as control; β-catenin/TCF4 co-IP also in cells with or without TRIB3 knockdown
[2] = target: T1, Tribbles pseudokinase 3 (TRIB3) (human (endogenous in HNSCC cell lines)), Q96RU7; assay: as above; conditions: remark: other sources report otherwise
T1 chain: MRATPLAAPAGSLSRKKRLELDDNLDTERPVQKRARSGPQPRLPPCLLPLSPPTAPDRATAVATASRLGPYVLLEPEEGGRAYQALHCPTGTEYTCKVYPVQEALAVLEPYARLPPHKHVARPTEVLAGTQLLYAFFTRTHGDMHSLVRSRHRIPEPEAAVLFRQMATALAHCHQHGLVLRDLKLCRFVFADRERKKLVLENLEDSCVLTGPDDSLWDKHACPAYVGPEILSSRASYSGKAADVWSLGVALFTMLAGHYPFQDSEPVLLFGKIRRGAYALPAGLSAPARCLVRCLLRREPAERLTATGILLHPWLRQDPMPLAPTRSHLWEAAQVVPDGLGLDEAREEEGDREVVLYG

[3] = target: T2, β-catenin (human (endogenous in HNSCC cell lines)), P35222; assay: as above; conditions: remark: other sources report otherwise
T2 chain: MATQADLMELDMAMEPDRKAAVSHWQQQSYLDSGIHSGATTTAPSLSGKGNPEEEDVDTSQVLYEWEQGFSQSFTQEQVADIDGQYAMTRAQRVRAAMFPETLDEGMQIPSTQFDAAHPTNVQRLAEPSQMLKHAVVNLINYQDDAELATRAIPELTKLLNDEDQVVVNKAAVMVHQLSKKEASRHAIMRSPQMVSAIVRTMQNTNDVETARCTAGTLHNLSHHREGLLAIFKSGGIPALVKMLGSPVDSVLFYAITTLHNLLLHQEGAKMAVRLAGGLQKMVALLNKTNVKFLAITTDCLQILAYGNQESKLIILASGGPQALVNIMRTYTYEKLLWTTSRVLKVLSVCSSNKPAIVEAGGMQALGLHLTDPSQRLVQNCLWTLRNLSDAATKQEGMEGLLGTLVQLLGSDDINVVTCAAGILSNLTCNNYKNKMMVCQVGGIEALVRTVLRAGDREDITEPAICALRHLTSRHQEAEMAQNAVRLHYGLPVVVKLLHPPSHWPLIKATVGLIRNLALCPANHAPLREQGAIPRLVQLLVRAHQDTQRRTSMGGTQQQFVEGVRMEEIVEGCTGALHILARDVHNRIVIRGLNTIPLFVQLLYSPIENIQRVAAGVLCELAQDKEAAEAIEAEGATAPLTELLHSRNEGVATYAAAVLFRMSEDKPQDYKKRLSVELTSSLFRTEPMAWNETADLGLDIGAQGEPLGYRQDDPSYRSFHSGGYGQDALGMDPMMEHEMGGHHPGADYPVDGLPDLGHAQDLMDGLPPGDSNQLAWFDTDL

[4] = target: T3, GST-TRIB3 fusion protein, Q96RU7; assay: pull-down; purified TCF4 protein or β-catenin incubated overnight at 4 °C with GST or GST-TRIB3 fusion proteins in the presence of glutathione-sepharose beads; both purified; conditions: remark: other sources report otherwise
T3 chain: T1 chain

For “purified TCF4 protein (from UniProt Q9NQB0 1-619)”, the binding (GST-TRIB3 fusion protein) was “binds”.

With “Transcription Factor 4 (TCF4) (from UniProt Q9NQB0 1-619)” the binding [1] was “binds”.

B1: β-catenin, P35222 1-781 (protein)
chain: T2 chain
With B1 the binding [2] was “binds”.

B2: Tribbles pseudokinase 3 (TRIB3), Q96RU7 1-358 (protein)
chain: T1 chain
B2 was tested, and the binding [3] was “binds”.

B3: purified β-catenin, P35222 1-781 (protein)
chain: T2 chain
For B3, the binding [4] was “binds”.
